Reference: the supplement of paper PMC12819154, “High-throughput peptide-centric local stability assay extends protein–ligand identification to membrane proteins, tissues and bacteria” (Nature Structural & Molecular Biology, 2025)
The list shows a part of the results. Small differences around the control level are noise.

Chains of the proteins cited; added tags and fusions are not shown. Lines headed by an entry give the natural chain unless they say otherwise; changes in a name come on top.
UniProt Q8NHK3: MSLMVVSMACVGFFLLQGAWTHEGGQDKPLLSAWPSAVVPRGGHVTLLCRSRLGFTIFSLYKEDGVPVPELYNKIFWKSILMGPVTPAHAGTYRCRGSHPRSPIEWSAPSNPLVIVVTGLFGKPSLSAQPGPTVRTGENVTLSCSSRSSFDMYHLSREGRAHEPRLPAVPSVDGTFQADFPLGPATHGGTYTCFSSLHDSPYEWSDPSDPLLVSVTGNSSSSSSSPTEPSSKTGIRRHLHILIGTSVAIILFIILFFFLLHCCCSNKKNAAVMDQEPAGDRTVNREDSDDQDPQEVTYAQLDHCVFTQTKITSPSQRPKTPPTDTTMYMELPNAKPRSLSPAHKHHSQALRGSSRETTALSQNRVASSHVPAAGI
UniProt Q8ND82: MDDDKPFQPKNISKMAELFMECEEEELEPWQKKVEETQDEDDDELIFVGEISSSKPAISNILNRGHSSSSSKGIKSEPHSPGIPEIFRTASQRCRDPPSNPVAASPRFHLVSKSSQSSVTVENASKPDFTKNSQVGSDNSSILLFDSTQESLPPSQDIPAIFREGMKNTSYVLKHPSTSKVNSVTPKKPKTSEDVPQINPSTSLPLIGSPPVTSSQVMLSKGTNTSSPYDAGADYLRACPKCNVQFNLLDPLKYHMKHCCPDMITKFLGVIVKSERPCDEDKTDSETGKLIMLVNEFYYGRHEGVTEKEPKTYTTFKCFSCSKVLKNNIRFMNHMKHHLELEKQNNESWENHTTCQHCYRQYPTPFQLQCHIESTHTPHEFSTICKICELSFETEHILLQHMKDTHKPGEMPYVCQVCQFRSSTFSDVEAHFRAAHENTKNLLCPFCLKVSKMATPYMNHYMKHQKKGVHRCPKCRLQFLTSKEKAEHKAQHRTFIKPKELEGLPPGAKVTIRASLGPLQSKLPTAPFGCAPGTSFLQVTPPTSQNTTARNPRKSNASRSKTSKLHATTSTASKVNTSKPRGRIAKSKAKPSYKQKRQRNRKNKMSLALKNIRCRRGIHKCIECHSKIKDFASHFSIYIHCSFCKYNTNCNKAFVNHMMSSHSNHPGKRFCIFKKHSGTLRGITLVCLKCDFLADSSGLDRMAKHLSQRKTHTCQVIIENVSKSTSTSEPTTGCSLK
UniProt Q8N587: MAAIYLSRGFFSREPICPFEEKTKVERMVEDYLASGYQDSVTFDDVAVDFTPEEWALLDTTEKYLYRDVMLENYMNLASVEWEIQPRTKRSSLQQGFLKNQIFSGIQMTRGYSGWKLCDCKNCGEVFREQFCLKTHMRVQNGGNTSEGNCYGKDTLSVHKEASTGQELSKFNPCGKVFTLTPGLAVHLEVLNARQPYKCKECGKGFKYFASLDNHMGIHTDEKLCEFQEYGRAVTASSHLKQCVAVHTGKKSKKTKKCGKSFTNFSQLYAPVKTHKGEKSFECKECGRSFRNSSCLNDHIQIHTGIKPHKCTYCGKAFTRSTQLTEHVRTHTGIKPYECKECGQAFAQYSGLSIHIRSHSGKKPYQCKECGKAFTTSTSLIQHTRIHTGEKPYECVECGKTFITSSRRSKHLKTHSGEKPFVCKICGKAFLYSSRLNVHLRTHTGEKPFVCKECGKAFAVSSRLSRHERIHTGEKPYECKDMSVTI
UniProt Q8NBN3: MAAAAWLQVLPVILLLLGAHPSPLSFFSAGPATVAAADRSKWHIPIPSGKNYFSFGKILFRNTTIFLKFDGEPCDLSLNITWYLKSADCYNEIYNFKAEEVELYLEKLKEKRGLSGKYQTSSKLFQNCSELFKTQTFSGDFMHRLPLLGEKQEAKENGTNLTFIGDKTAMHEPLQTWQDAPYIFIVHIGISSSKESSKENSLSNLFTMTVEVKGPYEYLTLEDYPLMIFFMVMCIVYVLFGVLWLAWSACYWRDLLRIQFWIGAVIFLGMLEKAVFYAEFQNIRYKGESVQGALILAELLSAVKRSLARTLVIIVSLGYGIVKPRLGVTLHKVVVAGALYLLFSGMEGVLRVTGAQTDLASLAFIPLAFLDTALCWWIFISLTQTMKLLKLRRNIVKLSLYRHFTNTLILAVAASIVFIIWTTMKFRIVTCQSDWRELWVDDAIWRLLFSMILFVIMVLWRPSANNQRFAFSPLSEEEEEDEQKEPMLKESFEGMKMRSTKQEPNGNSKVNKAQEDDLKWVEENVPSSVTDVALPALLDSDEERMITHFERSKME
UniProt Q8N9L1: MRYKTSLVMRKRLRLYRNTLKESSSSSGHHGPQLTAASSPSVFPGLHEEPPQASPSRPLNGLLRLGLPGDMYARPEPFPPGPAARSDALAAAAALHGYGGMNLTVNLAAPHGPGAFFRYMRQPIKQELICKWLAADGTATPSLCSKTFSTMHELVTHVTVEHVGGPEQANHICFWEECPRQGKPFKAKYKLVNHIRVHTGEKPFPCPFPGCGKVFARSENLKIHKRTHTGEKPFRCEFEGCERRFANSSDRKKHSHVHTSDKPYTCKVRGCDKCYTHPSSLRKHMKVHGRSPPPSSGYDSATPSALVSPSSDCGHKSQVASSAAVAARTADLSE
UniProt Q8N8D1: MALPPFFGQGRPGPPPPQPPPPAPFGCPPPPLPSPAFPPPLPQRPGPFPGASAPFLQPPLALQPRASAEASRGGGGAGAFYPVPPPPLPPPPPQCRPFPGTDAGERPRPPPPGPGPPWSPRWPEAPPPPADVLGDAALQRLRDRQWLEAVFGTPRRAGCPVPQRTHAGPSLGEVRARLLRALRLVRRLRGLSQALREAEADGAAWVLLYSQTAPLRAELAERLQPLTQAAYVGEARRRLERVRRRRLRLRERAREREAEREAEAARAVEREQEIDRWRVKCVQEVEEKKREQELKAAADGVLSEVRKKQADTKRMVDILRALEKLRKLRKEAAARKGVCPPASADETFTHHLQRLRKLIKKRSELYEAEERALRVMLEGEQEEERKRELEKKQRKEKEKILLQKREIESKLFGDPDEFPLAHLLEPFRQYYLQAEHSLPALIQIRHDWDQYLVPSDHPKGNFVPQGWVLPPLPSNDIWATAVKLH
UniProt Q8NEV1, whole entry, looked up: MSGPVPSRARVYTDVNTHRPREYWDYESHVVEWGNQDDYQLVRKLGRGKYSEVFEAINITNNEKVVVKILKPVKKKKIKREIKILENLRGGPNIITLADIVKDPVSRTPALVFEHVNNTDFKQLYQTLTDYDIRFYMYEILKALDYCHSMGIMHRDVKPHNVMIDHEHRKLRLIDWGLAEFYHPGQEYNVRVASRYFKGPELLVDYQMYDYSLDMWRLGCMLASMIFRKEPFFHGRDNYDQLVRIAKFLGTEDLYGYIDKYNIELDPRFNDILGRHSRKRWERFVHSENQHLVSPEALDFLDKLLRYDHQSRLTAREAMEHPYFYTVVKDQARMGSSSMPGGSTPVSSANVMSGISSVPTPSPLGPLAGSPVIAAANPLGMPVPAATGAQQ
UniProt Q8N5C6: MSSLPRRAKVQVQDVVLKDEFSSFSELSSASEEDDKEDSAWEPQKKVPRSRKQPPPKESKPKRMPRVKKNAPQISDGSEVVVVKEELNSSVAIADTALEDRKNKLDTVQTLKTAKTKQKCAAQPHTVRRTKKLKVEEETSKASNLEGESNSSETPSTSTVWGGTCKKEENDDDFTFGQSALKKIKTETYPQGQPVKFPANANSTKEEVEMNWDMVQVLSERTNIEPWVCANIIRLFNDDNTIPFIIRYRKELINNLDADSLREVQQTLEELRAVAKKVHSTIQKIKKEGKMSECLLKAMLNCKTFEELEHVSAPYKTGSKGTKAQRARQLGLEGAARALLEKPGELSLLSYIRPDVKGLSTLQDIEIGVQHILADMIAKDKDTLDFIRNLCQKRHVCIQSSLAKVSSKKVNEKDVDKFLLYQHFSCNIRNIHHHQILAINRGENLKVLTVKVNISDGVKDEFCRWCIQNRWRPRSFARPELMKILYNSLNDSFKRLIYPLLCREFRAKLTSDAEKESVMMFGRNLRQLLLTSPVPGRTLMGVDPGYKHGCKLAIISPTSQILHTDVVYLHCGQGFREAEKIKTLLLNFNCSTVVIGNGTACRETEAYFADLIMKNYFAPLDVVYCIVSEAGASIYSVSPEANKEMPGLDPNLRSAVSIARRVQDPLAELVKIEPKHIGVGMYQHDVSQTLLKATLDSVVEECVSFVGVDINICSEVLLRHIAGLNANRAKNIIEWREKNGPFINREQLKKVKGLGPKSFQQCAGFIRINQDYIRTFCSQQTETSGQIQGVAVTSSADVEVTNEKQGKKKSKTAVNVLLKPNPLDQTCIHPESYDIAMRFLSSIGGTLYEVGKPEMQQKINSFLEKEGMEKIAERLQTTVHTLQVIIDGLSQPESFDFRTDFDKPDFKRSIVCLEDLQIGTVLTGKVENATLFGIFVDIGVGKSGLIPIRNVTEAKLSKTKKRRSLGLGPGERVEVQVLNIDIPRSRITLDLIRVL
UniProt Q8N782: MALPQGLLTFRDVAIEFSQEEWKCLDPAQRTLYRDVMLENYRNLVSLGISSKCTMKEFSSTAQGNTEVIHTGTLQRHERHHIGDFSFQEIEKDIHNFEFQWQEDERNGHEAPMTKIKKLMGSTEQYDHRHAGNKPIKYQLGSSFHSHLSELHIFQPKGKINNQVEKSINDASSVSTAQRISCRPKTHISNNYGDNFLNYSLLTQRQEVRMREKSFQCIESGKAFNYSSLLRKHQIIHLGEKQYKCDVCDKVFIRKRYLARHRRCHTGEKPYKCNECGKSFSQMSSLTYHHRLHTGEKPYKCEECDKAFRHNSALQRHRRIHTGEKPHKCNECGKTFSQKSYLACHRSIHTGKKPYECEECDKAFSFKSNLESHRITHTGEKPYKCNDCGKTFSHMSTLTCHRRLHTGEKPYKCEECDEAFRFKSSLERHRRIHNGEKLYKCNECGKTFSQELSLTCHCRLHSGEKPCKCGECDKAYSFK
UniProt Q8NDX1: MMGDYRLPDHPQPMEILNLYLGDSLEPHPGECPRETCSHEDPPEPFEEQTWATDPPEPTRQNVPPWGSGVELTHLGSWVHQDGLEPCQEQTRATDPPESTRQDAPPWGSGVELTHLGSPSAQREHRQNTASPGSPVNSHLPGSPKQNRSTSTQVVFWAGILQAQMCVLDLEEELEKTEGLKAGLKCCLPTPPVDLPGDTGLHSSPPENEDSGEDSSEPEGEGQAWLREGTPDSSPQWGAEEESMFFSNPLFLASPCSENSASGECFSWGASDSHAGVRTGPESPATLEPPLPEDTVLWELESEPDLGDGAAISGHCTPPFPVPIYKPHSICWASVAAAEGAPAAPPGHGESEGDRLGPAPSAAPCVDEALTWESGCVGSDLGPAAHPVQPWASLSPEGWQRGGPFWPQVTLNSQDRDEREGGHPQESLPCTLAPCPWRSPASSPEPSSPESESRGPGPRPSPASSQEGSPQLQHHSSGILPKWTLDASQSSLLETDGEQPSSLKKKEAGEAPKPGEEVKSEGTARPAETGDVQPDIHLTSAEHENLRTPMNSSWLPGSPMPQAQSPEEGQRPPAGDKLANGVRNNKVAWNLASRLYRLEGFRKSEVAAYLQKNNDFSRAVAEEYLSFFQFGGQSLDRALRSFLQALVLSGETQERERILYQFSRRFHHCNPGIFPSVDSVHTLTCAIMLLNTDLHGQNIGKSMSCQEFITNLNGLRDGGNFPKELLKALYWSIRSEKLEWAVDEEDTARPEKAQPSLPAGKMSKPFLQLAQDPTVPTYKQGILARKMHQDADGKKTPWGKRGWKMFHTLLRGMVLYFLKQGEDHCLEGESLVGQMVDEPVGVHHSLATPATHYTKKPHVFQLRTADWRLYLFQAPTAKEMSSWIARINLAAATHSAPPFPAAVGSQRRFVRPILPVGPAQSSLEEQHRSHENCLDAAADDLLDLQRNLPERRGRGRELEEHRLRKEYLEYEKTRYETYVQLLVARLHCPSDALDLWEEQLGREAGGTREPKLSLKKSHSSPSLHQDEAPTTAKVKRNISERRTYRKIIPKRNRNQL
UniProt Q8NCP5: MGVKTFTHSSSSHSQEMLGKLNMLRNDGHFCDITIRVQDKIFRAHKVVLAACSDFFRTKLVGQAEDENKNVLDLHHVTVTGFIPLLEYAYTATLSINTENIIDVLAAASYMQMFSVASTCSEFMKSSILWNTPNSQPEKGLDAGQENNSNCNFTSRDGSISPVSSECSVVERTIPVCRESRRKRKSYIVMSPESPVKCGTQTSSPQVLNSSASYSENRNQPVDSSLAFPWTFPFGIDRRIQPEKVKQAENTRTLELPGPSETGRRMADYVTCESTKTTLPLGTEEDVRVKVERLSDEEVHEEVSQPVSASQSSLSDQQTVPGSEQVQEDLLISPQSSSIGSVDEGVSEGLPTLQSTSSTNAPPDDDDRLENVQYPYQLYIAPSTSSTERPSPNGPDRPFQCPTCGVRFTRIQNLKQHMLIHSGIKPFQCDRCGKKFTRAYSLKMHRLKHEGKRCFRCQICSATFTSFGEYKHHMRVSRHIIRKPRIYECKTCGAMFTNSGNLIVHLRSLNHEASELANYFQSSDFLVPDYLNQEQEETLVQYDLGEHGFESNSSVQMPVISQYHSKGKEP

compound: CN[C@@H]1C[C@H]2O[C@@](C)([C@@H]1OC)n1c3ccccc3c3c4c(c5c6ccccc6n2c5c31)C(=O)NC4 [staurosporine]; experiment: log2 fold change of tryptic peptide abundance, ligand vs vehicle (limited proteolysis) (log2 ratio); higher = more trypsin-susceptible (destabilized); settings: ligand concentration: 20 uM; sample: K562 cleared lysate; digestion: 4 min, 22 C (HT-PELSA RT4min, Orbitrap Astral)

Row | Target | log2 fold change
1 | PACRGL (peptide sequence: TINPFGEQSR, peptide start residue: 66) (UniProt Q8N7B6) | -0.332
2 | UniProt Q8NHK3 (peptide sequence: KNAAVMDQEPAGDRTVNR, peptide start residue: 368) | 0.258
3 | BANP (peptide sequence: LEINCQDPSIK, peptide start residue: 44) (UniProt Q8N9N5) | -0.217
4 | ZNF280C (peptide sequence: LHATTSTASK, peptide start residue: 565) (UniProt Q8ND82) | 0.646
5 | UniProt Q8N587 (peptide sequence: AVTASSHLK, peptide start residue: 233) | 0.194
6 | FBH1 (peptide sequence: GAVNALFTVPHTHVFYLTQSFR, peptide start residue: 682) (UniProt Q8NFZ0) | 0.412
7 | PUM2 (peptide sequence: MIDMAEPAQR, peptide start residue: 1008) (UniProt Q8TB72) | 0.448
8 | ZGPAT (peptide sequence: FDSLLLR, peptide start residue: 250) (UniProt Q8N5A5) | -0.154
9 | TMEM87A (peptide sequence: MITHFER, peptide start residue: 545) (UniProt Q8NBN3) | 0.261
10 | ZNF579 (peptide sequence: HAQVHAGGPAPHPCPRCPR, peptide start residue: 430) (UniProt Q8NAF0) | 0.814
11 | MCPH1 (peptide sequence: FLSNLSKEEINLQR, peptide start residue: 291) (UniProt Q8NEM0) | -0.187
12 | WDTC1 (peptide sequence: ILITGAADSK, peptide start residue: 106) (UniProt Q8N5D0) | 0.292
13 | UniProt Q8N9L1 (peptide sequence: THTGEKPFR, peptide start residue: 852) | -0.408
14 | PDCD7 (peptide sequence: DRQWLEAVFGTPR, peptide start residue: 143) (UniProt Q8N8D1) | -0.366
15 | CCNYL1 (peptide sequence: ASTIFLSK, peptide start residue: 65) (UniProt Q8N7R7) | 0.0316
16 | UniProt Q8NEV1 (peptide sequence: ARVYTDVNTHRPR, peptide start residue: 9) | -0.578
17 | UniProt Q8NFR7 (peptide sequence: LASASAK, peptide start residue: 41) | -0.0398
18 | KMT2C (peptide sequence: AVHGGFEDCRPLNKK, peptide start residue: 4337) (UniProt Q8NEZ4) | 0.568
19 | UniProt Q8NFC6 (peptide sequence: QQYEEDSKETLK, peptide start residue: 591) | -0.413
20 | SRBD1 (peptide sequence: KEENDDDFTFGQSALK, peptide start residue: 167) (UniProt Q8N5C6) | 0.319
21 | UniProt Q8N782 (peptide sequence: HHIGDFSFQEIEK, peptide start residue: 80) | -0.373
22 | ARFGAP1 (peptide sequence: KSPSSDSWTCADTSTERR, peptide start residue: 342) (UniProt Q8N6T3) | -0.344
23 | PSD4 (peptide sequence: SHSSPSLHQDEAPTTAK, peptide start residue: 1017) (UniProt Q8NDX1) | 1.11
24 | MRPL50 (peptide sequence: EKEPVVVETVEEK, peptide start residue: 33) (UniProt Q8N5N7) | -0.134
25 | CEP76 (peptide sequence: EILAETIR, peptide start residue: 30) (UniProt Q8TAP6) | 0.165
26 | UniProt Q8NCP5 (peptide sequence: GLDAGQENNSNCNFTSR, peptide start residue: 140) | -0.255
27 | RDH13 (peptide sequence: LQGSGVTVNALHPGVAR, peptide start residue: 218) (UniProt Q8NBN7) | 0.347
28 | SMARCC2 (peptide sequence: MDRNVEMFMTIEK, peptide start residue: 117) (UniProt Q8TAQ2) | 0.667

Already shown: entries from further up.
Row | Target | log2 fold change
20 | SRBD1 (peptide sequence: KEENDDDFTFGQSALK, peptide start residue: 167) (UniProt Q8N5C6) | 0.319
21 | UniProt Q8N782 (peptide sequence: HHIGDFSFQEIEK, peptide start residue: 80) | -0.373
